From the supplement of paper PMC10735217
Counter-ions that a name gives are not always drawn. This is one part of the list. Repeats in this data set agree poorly, so a single value says little.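 In a drug-repurposing library screen, luminescence reads luciferase driven by eight TEAD-binding elements, stably integrated into human kidney-derived cells. Compounds scoring over five robust Z scores above the plate mean are called hits.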

System: HEK293A TEAD-LUC reporter
Experiment: TEAD-luciferase reporter activity (YAP activation), robust Z score vs plate; higher = stronger YAP/TEAD activation
Settings: 24 h

| SMILES | TEAD-luciferase reporter activity (compound concentration: 200 nM) | TEAD-luciferase reporter activity (compound concentration: 2 uM) | TEAD-luciferase reporter activity (compound concentration: 10 uM) |
| --- | --- | --- | --- |
| C[C@@H]([C@@H](O)c1ccc(O)cc1)N1CCC(O)(c2ccccc2)CC1 [Traxoprodil] | inactive: -1.06 | inactive: 0.488 | inactive: 1.22 |
| NC1=N[C@@]2(c3cc(NC(=O)c4ccc(F)cn4)ccc3F)COC[C@H]2CS1 | inactive: -0.603 | inactive: -0.524 | inactive: 0.444 |
| COC(=O)C[C@H]1CCCCN1C(=O)/C=C/c1c(-c2ccccc2)nn2ccccc12 | inactive: 0.332 | inactive: -0.955 | inactive: -0.205 |
| O=C(Cc1ccc(Cl)cc1)Nc1ccc2cnn(CCN3CCCC3)c2c1 | inactive: -0.925 | inactive: -0.968 | inactive: -0.953 |
| O=C(O)COc1cccc2c1CCC=C2CCON=C(c1ccccc1)c1cccnc1 | inactive: -0.631 | inactive: 0.364 | inactive: 1.42 |
| CCCc1ccc(NS(=O)(=O)Cc2ccccc2)c(=O)n1CC(=O)NCc1cccc(C)c1 | inactive: 1.18 | inactive: -1.14 | inactive: 0.289 |
| NCCC(=O)N[C@@H](Cc1cnc[nH]1)C(=O)O [Carnosine] | active: 7.24 | inactive: -2.38 | inactive: 2.94 |
| Nc1cc(C(F)(F)F)c(-c2cc(N3CCOCC3)nc(N3CCOCC3)n2)cn1 [buparlisib] | inactive: 0.918 | inactive: -0.747 | inactive: 3.69 |
| CCCCN(CCCC)CCCC(O)c1ccc(NS(C)(=O)=O)cc1 (centres undefined) | inactive: -0.982 | inactive: 0.648 | inactive: 0.287 |
| OB1OCc2cc(F)ccc21 [Tavaborole] | inactive: 0.77 | inactive: 0.922 | inactive: 1.12 |
| COc1ccc(Br)cc1NC(=O)Nc1cccc2c1ccn2Cc1ccnc(N)c1 | inactive: -1.55 | inactive: -0.622 | inactive: -1.21 |
| CCNC(=O)[C@@H]1CCCN1C(=O)[C@H](CCCNC(=N)N)NC(=O)[C@H](CC(C)C)NC(=O)[C@@H](COC(C)(C)C)NC(=O)[C@H](Cc1ccc(O)cc1)NC(=O)[C@H](CO)NC(=O)[C@H](Cc1c[nH]c2ccccc12)NC(=O)[C@H](Cc1c[nH]cn1)NC(=O)[C@@H]1CCC(=O)N1 [Buserelin (Acetate)] | inactive: -1.13 | inactive: -0.0751 | inactive: 1.6 |
| CC(C)OC(=O)[C@H](C)NP(=O)(OC[C@H]1O[C@@H](n2ccc(=O)[nH]c2=O)[C@](C)(F)[C@@H]1O)Oc1ccccc1 (some centres undefined) [Sofosbuvir] | inactive: -1.78 | inactive: -0.601 | inactive: -2.37 |
| CCOC(=O)C1CCN(c2nc(N(C)S(=O)(=O)c3ccc(OC)cc3)ccc2[N+](=O)[O-])CC1 | inactive: -0.631 | inactive: -1.06 | inactive: 1.15 |
| Cc1nc(N)nc(N)c1C12CC3CC(CC(C3)C1)C2 | inactive: -0.822 | – | inactive: -0.064 |
| Cc1cc(C(=O)Nc2ccc(-c3ccccc3S(N)(=O)=O)cc2)n(-c2cccc(C(=N)N)c2)n1 | inactive: 0.749 | inactive: -0.752 | inactive: -0.108 |
| CSCC[C@H](NC(=O)[C@@H]1CCCN1C(=O)CNC(=O)[C@H](CCCCN)NC(=O)[C@H](Cc1cnc[nH]1)NC(=O)[C@H](CO)NC(=O)[C@H](CC(C)C)NC(=O)[C@H](CCCNC(=N)N)NC(=O)[C@@H]1CCCN1C(=O)[C@H](CCCNC(=N)N)NC(=O)[C@@H](N)CCC(N)=O)C(=O)N1CCC[C@H]1C(=O)N[C@@H](Cc1ccccc1)C(=O)O [Apelin-13] | inactive: -1.56 | inactive: 0.315 | inactive: -1.19 |
| CN(C)CCC=C1c2ccccc2C=Cc2ccccc21 [cyclobenzaprine HCl] | – | inactive: 0.618 | – |
| CN(C)CCC=C1c2ccccc2C=Cc2ccccc21 [cyclobenzaprine HCl, Aptalis] | inactive: -0.236 | – | inactive: 0.63 |
| CC(NC(=O)C(CSC(=O)c1ccccc1)C(C)c1ccccc1)C(=O)O (centres undefined) [Mixanpril] | inactive: -1.64 | inactive: -0.0786 | inactive: -1.57 |
| CCCNCC(COc1ccccc1C(=O)CCc1ccccc1)OC (centres undefined) | inactive: 0.882 | inactive: 0.326 | inactive: -1.12 |
| O=c1oc2cc(O)ccc2c2oc3cc(O)ccc3c12 | – | inactive: -1.2 | inactive: -0.969 |
| CN(C)N(C)C(=O)[C@@]1(Cc2ccccc2)CCCN(C(=O)[C@@H](Cc2c[nH]c3ccccc23)NC(=O)C(C)(C)N)C1 [anamorelin hydrochloride] | inactive: -1.57 | inactive: -0.359 | inactive: 2.04 |
| O=C1NCc2ccccc2CC12CCCCN2CC1CC=CCC1 (centres undefined) | inactive: 3.11 | – | inactive: 0.767 |
| CN[C@H](CC(C)C)C(=O)N[C@H]1C(=O)N[C@@H](CC(N)=O)C(=O)N[C@H]2C(=O)N[C@H]3C(=O)N[C@H](C(=O)N[C@H](C(=O)O)c4cc(O)cc(O)c4-c4cc3ccc4O)[C@H](O[C@H]3C[C@](C)(N)[C@@H](O)[C@H](C)O3)c3ccc(c(Cl)c3)Oc3cc2cc(c3O[C@@H]2O[C@H](CO)[C@@H](O)[C@H](O)[C@H]2O[C@H]2C[C@](C)(NCc3ccc(-c4ccc(Cl)cc4)cc3)[C@@H](O)[C@H](C)O2)Oc2ccc(cc2Cl)[C@H]1O [Oritavancin (diphosphate)] | inactive: -1.3 | inactive: -0.825 | inactive: 2.81 |
| CC(=O)NCCCCCCNC(C)=O | inactive: 0.788 | – | inactive: 0.207 |

Single records (already shown):
CN(C)CCC=C1c2ccccc2C=Cc2ccccc21 [cyclobenzaprine HCl] in the list: TEAD-luciferase reporter activity (compound concentration: 2 uM): inactive: 0.618
O=C(Cc1ccc(Cl)cc1)Nc1ccc2cnn(CCN3CCCC3)c2c1 in the list: TEAD-luciferase reporter activity (compound concentration: 200 nM): inactive: -0.925; TEAD-luciferase reporter activity (compound concentration: 2 uM): inactive: -0.968; TEAD-luciferase reporter activity (compound concentration: 10 uM): inactive: -0.953

Additional records

| SMILES | TEAD-luciferase reporter activity (compound concentration: 200 nM) | TEAD-luciferase reporter activity (compound concentration: 2 uM) | TEAD-luciferase reporter activity (compound concentration: 10 uM) |
| --- | --- | --- | --- |
| CC(=O)NCCCCCCNC(C)=O [Hexamethylenebisacetamide] | – | inactive: -0.2 | – |
| c1ccc(C(c2ccccc2)N2CCN(Cc3ccc4c(c3)OCO4)CC2)cc1 | inactive: -0.0324 | inactive: -0.408 | inactive: -1.19 |
| CN1CC(=O)N2[C@H](c3ccc4c(c3)OCO4)c3[nH]c4ccccc4c3C[C@@H]2C1=O | inactive: -1.03 | inactive: -0.949 | inactive: 0.212 |
| O=C([O-])P(=O)([O-])[O-] [Foscarnet sodium] | inactive: -0.165 | inactive: 0.191 | inactive: 4.01 |
| COc1cc2c(cc1OC)C(c1cc(OC)c(OC)c(OC)c1)NCC2 (centres undefined) | inactive: 0.698 | inactive: -2.01 | inactive: -0.303 |
| Cc1cc2nc3c4cc(Cl)ccc4n(CC(=O)NCCN(C)C)c3nc2cc1C [Rabeximod] | inactive: 0.745 | inactive: -0.409 | inactive: 2.86 |
| COc1ccc(C2CCN(CC[C@H]3CCOc4ccccc43)CC2)cc1OC | inactive: 1.88 | inactive: 0.116 | inactive: 2.15 |
| CCSC(=N)N | – | inactive: -0.0875 | – |
| CCSC(=N)N [S-Ethylisothiourea hydrobromide] | inactive: -1.33 | – | inactive: -0.877 |
| COC(=O)c1ccccc1-c1c2ccc(=N)cc-2oc2cc(N)ccc12 | inactive: -2.42 | inactive: 1.3 | inactive: 4.81 |
| COC1/C=C/OC2(C)Oc3c(C)c(O)c4c(O)c(c(/C=N/N5CCN(C)CC5)c(O)c4c3C2=O)NC(=O)/C(C)=C\C=C\C(C)C(O)C(C)C(O)C(C)C(OC(C)=O)C1C (centres undefined) [rifampicin] | – | inactive: 1.16 | – |
| COC1/C=C/OC2(C)Oc3c(C)c(O)c4c(O)c(c(/C=N/N5CCN(C)CC5)c(O)c4c3C2=O)NC(=O)/C(C)=C\C=C\C(C)C(O)C(C)C(O)C(C)C(OC(C)=O)C1C (centres undefined) [rifampicin, AlphaRx] | inactive: -1.09 | – | inactive: -0.488 |
| C[N+](C)(C)CCOC(=O)CCCC[C@H]1CCSS1 | inactive: -1.65 | inactive: -0.0798 | inactive: 0.953 |
| COc1cc(N)c(Cl)cc1C(=O)N[C@@H]1CCNC[C@@H]1OC [Ticalopride] | inactive: -2.23 | inactive: -0.224 | inactive: 0.639 |
| COc1cc(Cl)ccc1C(=O)NCC(C)N(C)C (centres undefined) | inactive: -1.65 | inactive: -1.35 | inactive: 1.05 |
| CCOc1ccccc1OCCN[C@H](C)Cc1cc(C(N)=O)c2c(ccn2CCCOC(=O)C(C)(C)C)c1 | inactive: -0.277 | inactive: 1.17 | inactive: 3.05 |
| N#Cc1ccccc1CN1CCCC12Cc1ccccc1CNC2=O (centres undefined) | inactive: -3.16 | – | inactive: 1.94 |
| COc1ccc(CC(C)NCC(O)c2ccc(O)c(NC=O)c2)cc1 (centres undefined) [Formoterol] | inactive: 0.277 | – | inactive: 0.196 |
| COc1ccc(CC(C)NCC(O)c2ccc(O)c(NC=O)c2)cc1 (centres undefined) [Arformoterol tartrate] | – | inactive: -1.48 | – |
| COc1ncnc2c1nc(N)n2Cc1cc(Br)cs1 | inactive: 0.372 | inactive: 0.633 | inactive: 1.11 |
| CN[C@@H](C)C/C=C/c1cncc(OC(C)C)c1 | inactive: -1.84 | inactive: -1.61 | inactive: 0.108 |
| CC(C)(C)NC(=O)CN1CCC(CNC(=O)c2cc(F)cc(Cl)c2)CC1 | inactive: -0.583 | inactive: -0.779 | inactive: -1.14 |
| CCCCCCc1cc(S(C)(=N)=O)cc2c(=O)c3cc(C(=O)O)ccc3oc12 (centres undefined) [sudexanox] | inactive: -2.22 | inactive: -0.405 | inactive: -0.456 |
| CCCCc1nc2ccc(C(C)(C)OC)cc2c(=O)n1Cc1ccc(-c2ccccc2-c2nn[nH]n2)cc1 | inactive: -0.728 | inactive: -0.26 | inactive: 0.754 |
| COc1cc2c(cc1OC)CC(=O)N(CCCN(C)C[C@H]1Cc3cc(OC)c(OC)cc31)CC2 [ivabradine, Jiangsu Hengrui Medicine] | inactive: -0.723 | inactive: -0.913 | inactive: -3.02 |
